Test results: article PMC12518853
No constants are given. Whether binding was seen depends on the method and setting. In cells and extracts the contact can be indirect. These calls come from enrichment with a bait or labelling near it, and not all partners need be listed. A no says only that the protein was not detected with the bait.

Chains of the proteins cited; added tags and fusions are not shown. Residues count along the entry.
UniProt P13597, residues 28-537: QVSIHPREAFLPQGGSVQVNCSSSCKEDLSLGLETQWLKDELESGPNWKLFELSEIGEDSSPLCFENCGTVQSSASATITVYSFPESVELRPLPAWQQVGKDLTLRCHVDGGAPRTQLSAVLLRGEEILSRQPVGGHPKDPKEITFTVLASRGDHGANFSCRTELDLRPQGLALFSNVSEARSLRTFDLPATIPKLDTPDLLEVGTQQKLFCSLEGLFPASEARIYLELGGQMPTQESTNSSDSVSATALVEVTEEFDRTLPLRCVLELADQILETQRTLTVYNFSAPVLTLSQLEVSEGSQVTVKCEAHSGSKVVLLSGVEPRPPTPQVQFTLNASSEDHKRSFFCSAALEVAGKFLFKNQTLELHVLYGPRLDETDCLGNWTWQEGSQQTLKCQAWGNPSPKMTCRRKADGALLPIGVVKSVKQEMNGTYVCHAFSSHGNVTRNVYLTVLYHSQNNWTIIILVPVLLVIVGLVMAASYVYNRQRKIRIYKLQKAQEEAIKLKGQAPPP
UniProt Q6PHN9: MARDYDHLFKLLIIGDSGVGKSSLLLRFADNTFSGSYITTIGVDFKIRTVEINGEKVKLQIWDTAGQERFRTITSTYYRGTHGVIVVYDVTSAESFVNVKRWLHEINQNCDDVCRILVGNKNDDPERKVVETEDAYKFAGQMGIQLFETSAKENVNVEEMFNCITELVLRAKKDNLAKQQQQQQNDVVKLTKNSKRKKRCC

Biological target: intercellular adhesion molecule 1 (ICAM1) (mouse (endogenous, cells of the co-IP not named)) (UniProt P13597)
Test: affinity purification with mass spectrometry; IP-MS: Pierce MS-compatible Magnetic IP Kit; cell lysates incubated with the antibody at 4 °C overnight, then protein A/G magnetic beads for 2 h, five washes, eluate analysed by LC-MS/MS (searched against the Mus musculus UniProt database)

| binding | Molecule |
| --- | --- |
| no binding | Rab35 (from UniProt Q6PHN9 1-201) |
| no binding | Rab27a (protein, UniProt Q9ERI2 1-221) MSDGDYDYLIKFLALGDSGVGKTSVLYQYTDGKFNSKFITTVGIDFREKRVVYRANGPDGAVGRGQRIHLQLWDTAGQERFRSLTTAFFRDAMGFLLLFDLTNEQSFLNVRNWISQLQMHAYCENPDIVLCGNKSDLEDQRAVKEEEARELAEKYGIPYFETSAANGTNISHAIEMLLDLIMKRMERCVDKSWIPEGVVRSNGHTSADQLSEEKEKGLCGC |
